Measurements as given in paper PMC10682194, “Structural insights into ligand recognition and selectivity of the human hydroxycarboxylic acid receptor HCAR2” (Cell Discovery, 2023).
No constants are given. Whether binding was seen depends on the method and setting. Binding seen in cells or lysates may run through a third protein. Some entries that bind do so weakly or less than the wild type.

By UniProt entry, the sequences of proteins in these tests, tags left out.
UniProt Q8TDS4: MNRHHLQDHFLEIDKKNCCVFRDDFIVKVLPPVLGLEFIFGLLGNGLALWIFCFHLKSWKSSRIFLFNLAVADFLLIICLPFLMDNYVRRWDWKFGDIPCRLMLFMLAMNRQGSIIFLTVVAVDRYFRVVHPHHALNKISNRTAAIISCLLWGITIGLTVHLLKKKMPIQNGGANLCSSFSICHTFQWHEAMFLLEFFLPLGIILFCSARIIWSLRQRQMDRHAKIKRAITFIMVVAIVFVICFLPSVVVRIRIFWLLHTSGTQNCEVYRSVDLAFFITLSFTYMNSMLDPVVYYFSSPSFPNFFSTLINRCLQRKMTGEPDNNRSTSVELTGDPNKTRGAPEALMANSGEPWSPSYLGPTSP
UniProt P49407: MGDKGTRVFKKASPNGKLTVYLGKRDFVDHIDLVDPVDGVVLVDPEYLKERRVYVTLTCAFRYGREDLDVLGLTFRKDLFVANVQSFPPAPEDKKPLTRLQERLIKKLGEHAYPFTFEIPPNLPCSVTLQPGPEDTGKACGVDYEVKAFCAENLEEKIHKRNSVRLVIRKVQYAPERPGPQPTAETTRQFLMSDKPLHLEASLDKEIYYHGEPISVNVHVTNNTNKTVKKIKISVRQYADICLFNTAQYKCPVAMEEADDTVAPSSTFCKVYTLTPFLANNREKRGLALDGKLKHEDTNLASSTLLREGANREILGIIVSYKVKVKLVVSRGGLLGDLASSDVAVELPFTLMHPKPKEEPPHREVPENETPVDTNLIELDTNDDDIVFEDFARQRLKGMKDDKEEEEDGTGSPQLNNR

Target: HCAR2-SmBiT (human) (UniProt Q8TDS4)
Assay: split reporter; HEK293 co-transfected with HCAR2-SmBiT and LgBiT-β-arrestin1; 10 μM coelenterazine H; different concentrations of niacin, acipimox or MK-6892; 37 °C

LgBiT-β-arrestin1 (from UniProt P49407 1-418)
binding: binds
